Assay results published in publication PMC10163288.
This is one part of the list.

B1: il10ra_site1_sap_21_mot_HHH_b2_00612_000000251_0001_1_14_H_._HHH_b2_02757_af2_0001_0000400030_0000001_0_0001_af2pred_0001 (protein)
chain: SSSSNEEAKRAAEFFVKAAKQLEDPEKRRLTLRFAEHLAKEANDEELEREIEELLEELEKSSSSS
B2: il10ra_site1_normal_mot_HHH_b2_00475_000000107_0001_44_57_H_._HHH_b2_01638_af2_0001_0000300017_0000002_0 (protein)
chain: SSSSEAEQRVAELLFRALRLLAEGNPEEAREVVEEAHELAEENNDEELRKYVEILLHFIESHSSS
B3: il10ra_site1_normal_mot_HHH_b1_08356_000000013_0001_43_57_H_._HHH_b2_03796_0001_0000100007_0000001_0_af2pred_0001 (protein)
chain: SSSSSSSELERLLEEIEEALERGDPQEALRLSLEAARLAAELNDHEVLRELQELLEEIFSSSSSS
B4: il10ra_site1_normal_mot_HHH_b1_02168_af2_000000274_0001_1_19_H_._HHH_b2_02103_0001_0000500035_0000002_0_af2pred_0001 (protein)
chain: SSSSSSERQVRLRVEVLLWFAEFSNNPEAVKQALEMAEEIARENNDPELEELVEEVKRRLSSSSS
B5: il10ra_site1_normal_mot_HHH_b2_07579_000000275_0001_1_19_H_._HHH_b2_02232_0001_0000300044_0000001_0 (protein)
chain: SSSSDLSEEVFKLIREAAELLRKGNPEEAEKVLEKAEELAQEAGNEVFRFAIRFLLRDIEESSSS
B6: il10ra_site1_normal_mot_HHH_b1_04693_000000238_0001_19_36_H_._HHH_b2_06085_af2_0001_0000700026_0000002_0 (protein)
chain: SSSSSDQELYELIRELIELLLEGDEEEIERLEEEIEKLAKELNNRVLLFVARAARRLQEKSSSSS
B7: il10ra_site1_normal_mot_HHH_b1_07527_000000076_0001_1_15_H_._HHH_b2_06940_af2_0001_0000100005_0000001_1 (protein)
chain: SSSSDERTDEVYKLIREAMELARNGNPEEAEKVLEEAKHIAEEAGNYAALFSIRHLERDLKSSSS
B8: il10ra_site1_sap_17_mot_HHH_b2_01705_af2_000000069_0001_44_57_H_._HHH_b2_04738_af2_0001_0000200006_0000001_1_0001 (protein)
chain: SSSSSSDVEELLEELEELLEQGNREEALKVLQEALRLAYQRSDPELLQLLWEIARRLGSSSSSSS
B9: il10ra_site1_normal_mot_HHH_b2_08144_af2_000000046_0001_38_52_H_._HHH_b1_08314_af2_0001_0000400033_0000001_0_af2pred_dldesign_0_af2pred (protein)
chain: SSSSSEKIEEIVRLLREAALLLSEGKPEEAKELVEKALKLAEELGDEILKHTAEFLLSRVSSSSS
B10: il10ra_site1_sap_19_mot_1f0bf248c09923a0581b66a675a8b92c_0001_af2_000000188_0001_52_65_H_._ed672b822448df934975055ed07e5099_0001_1_0001_0000300010_0000001_1_000 … (protein)
chain: SSSSSEDEREVERLLEEAKEAAKRDPKRASYLLTRAFAIAAHSNNEELKELVHEVAQELTHSSSS
B11: il10ra_site1_normal_mot_HHH_b2_04275_000000272_0001_20_36_H_._HHH_b1_02339_af2_0001_0000300026_0000001_1 (protein)
chain: SSSSTQEVYELLEELSKLIHEGDEEEFEKLFEEIEKLIKELGNENMRAVLESLERLFKANKSSSS
B12: il10ra_site1_normal_mot_HHH_b2_00622_af2_000000153_0001_40_57_H_._1ad9cd31332199d645683f25bccb3f2f_0001_af2_0001_0000400005_0000001_0 (protein)
chain: DEYVKRAVRFALRLPDPERREKLLRAALQLAERLGDPIRELIEQLIEALRRGDPELEREISEELR
B13: il10ra_site1_sap_19_mot_HHH_b1_03685_af2_000000224_0001_1_18_H_._HHH_b1_01544_af2_0001_0000300003_0000001_0_0001 (protein)
chain: SSSSSDEEEAEQIFEEARRLAEELGNRAARFLVRQALKAYRLTGDPKVLEIVERLLRILRSSSSS
B14: il10ra_site1_sap_17_mot_HHH_b1_04771_000000013_0001_40_56_H_._HHH_b2_03279_0001_0000200007_0000001_0_0001 (protein)
chain: SSSSDEFERLMELIEEAMELHADGNEEEAEKVLEEAEELAEELNNDIVRRLLEKLLRKLGSSSSS
B15: il10ra_site1_normal_mot_HHH_b1_05357_000000034_0001_23_39_H_._HHH_b2_02453_0001_0000600026_0000001_0_af2pred_0001 (protein)
chain: SSSSDVEEELEELLEEAKRIEDRLRANYVLARAFALATKRRDPELEEFVEEAAKRIVEEGSSSSS
B16: il10ra_site1_normal_mot_HHH_b2_08144_af2_000000046_0001_38_52_H_._HHH_b2_07064_af2_0001_0000100006_0000001_0 (protein)
chain: SSSSDEERREVYELSRRAAELHHDGNEEEAQELLERARELAEELNNPLMLIQVEFLLRLISSSSS
B17: il10ra_site1_sap_20_mot_HHH_b1_05609_af2_000000134_0001_1_18_H_._HHH_b1_01684_0001_0000400040_0000002_0_0001 (protein)
chain: SSSSDEEEERLRELLEELEELVEEGDLERFAKVAQEALRLAFRLGDEEVLQRLFELVERIASSSS
B18: il10ra_site1_sap_20_mot_HHH_b1_01082_af2_000000031_0001_3_19_H_._HHH_b1_04169_0001_0000200031_0000001_0_0001 (protein)
chain: SSSSTYEELKRLVEEILEAIRNGDPELARELLEELQKLIEEKGDWAARFTLELLERALENSSSSS
B19: il10ra_site1_normal_mot_HHH_b2_00273_000000062_0001_23_39_H_._HHH_b2_07916_af2_0001_0000100002_0000001_0 (protein)
chain: SSSSSEEEEKLEELVKELEELVEEGDEEKVLELALRAIQLAFELSDQEVLQRLHELVRSLQSSSS

Molecular target: il10ra, Q13651
Test: yeast display titration

Binder | apparent Kd
B1 | inactive: no binding seen
B2 | inactive: no binding seen
B3 | inactive: no binding seen
B4 | inactive: no binding seen
B5 | inactive: no binding seen
B6 | inactive: no binding seen
B7 | inactive: no binding seen
B8 | inactive: no binding seen
B9 | inactive: no binding seen
B10 | inactive: no binding seen
B11 | inactive: no binding seen
B12 | inactive: no binding seen
B13 | inactive: no binding seen
B14 | inactive: no binding seen
B15 | inactive: no binding seen
B16 | inactive: > 959 nM
B17 | inactive: no binding seen
B18 | inactive: no binding seen
B19 | inactive: no binding seen

A second format for part of the listing above.
Binder,apparent Kd
B11,inactive: no binding seen
B18,inactive: no binding seen
